At least one structure is not confirmed: it was looked up by name or label, or the drawing left a doubt.
Legend:
Type in all cases: in vivo, SCID mice
22Rv1 xenograft tumours = assay: 22Rv1 xenograft tumour growth (calliper tumour volumes); details: single agent: bicalutamide 2 mg/kg/day oral, or AQ4N/OCT1002 50 mg/kg i.p. single dose day 7
From the text: (ii) Effect of Bicalutamide on Blood Vessels in 22Rv1 Tumour Xenografts • Dorsal skin folds were secured using window chambers onto the backs of male SCID mice (>8 weeks). […] Tumour volume was normalised to day 6 (ie pre-prodrug addition).

22Rv1 tumour fragments = assay: Tumour blood vessel imaging in dorsal skin fold window chambers (FITC-dextran, confocal); details: 2 mg/kg daily oral gavage, imaged days 7, 14, 21
[1] = system: LNCaP-luc xenograft tumours; assay: Metastatic spread to the lungs (bioluminescence, IVIS); details: single agent, day 28 (OCT1002 50 mg/kg single dose day 7; bicalutamide 2 mg/kg/day)
LNCaP xenograft tumours = assay: LNCaP xenograft tumour growth (calliper tumour volumes); details: single agent (OCT1002 50 mg/kg day 7 with daily vehicle; bicalutamide daily for 28 days)

CC(O)(CS(=O)(=O)c1ccc(F)cc1)C(=O)Nc1ccc(C#N)c(C(F)(F)F)c1 (stereo not shown) [Bicalutamide]
tumour growth pattern (regression fit, volume normalised to day 6) (22Rv1 xenograft tumours): overall exponential growth pattern
effect on tumour small blood vessels (22Rv1 tumour fragments): loss of small vessels was seen at days 7 and 14 with some recovery by day 21
metastatic spread to the lung (bioluminescence) [1]: appeared to increase the extent of metastatic spread although the result did not reach significance
effect on tumour growth (LNCaP xenograft tumours): initially slows tumour growth until day 12-14

Reference: US11401234B2, “Deuterated compounds and uses thereof” (priority 2012, dated 2022)
